This note sets out measurements from article PMC9928461.

Chains of the proteins cited; added tags and fusions are not shown. Lines headed by an entry give the natural chain unless they say otherwise; changes in a name come on top.
UniProt Q4VPP2: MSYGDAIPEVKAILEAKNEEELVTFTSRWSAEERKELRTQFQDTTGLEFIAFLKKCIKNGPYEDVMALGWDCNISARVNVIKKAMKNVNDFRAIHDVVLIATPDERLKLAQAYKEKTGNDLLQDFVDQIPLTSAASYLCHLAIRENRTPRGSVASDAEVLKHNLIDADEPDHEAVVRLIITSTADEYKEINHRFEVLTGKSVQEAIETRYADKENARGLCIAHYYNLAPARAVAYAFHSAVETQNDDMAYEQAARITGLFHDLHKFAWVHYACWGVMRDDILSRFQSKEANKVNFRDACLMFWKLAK
UniProt E2RTS6: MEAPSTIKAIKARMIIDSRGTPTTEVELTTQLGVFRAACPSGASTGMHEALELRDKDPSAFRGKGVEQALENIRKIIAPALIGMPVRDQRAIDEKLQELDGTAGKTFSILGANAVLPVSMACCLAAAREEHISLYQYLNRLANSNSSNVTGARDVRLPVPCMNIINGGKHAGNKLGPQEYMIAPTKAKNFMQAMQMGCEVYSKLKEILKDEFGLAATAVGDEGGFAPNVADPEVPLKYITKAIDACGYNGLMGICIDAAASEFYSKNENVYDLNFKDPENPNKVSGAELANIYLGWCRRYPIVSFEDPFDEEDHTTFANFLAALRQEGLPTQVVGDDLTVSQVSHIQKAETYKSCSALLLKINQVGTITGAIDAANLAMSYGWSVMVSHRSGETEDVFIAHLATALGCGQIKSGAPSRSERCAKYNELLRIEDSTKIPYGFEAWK
UniProt A8BK79: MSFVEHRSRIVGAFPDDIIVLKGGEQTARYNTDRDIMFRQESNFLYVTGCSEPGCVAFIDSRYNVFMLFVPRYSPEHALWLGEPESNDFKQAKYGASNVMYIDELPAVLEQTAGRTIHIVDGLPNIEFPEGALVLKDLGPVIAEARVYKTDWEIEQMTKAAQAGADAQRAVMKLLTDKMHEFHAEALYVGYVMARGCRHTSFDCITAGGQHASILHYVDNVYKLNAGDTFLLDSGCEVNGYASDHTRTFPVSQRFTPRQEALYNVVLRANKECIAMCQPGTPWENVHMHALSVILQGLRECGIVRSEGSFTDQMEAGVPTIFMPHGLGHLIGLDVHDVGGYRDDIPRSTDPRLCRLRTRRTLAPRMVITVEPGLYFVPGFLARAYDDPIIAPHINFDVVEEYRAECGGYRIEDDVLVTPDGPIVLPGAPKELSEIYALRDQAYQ

No constants are given. Whether binding was seen depends on the method and setting. In cells and extracts the contact can be indirect. These calls come from enrichment with a bait or labelling near it, and not all partners need be listed.

Common to all, as to experiment: affinity purification with mass spectrometry; co-IP in limited cross-linking conditions: cells fixed in 2.25% formaldehyde in PBS 30 min, RIPA-SDS/RIPA-Triton extract, HA-tagged bait captured on anti-HA agarose beads overnight at 4°C, LC-MS; hits ranked by average relative iBAQ over at least two biological replicates
The target in assay [1] is GL50803_17153 alpha 11-giardin (Giardia lamblia WBA C6 (ATCC 50803)) (UniProt Q4VPP2).
Assay [2] deals with GL50803_11118 Enolase (Giardia lamblia WBA C6 (ATCC 50803)) (UniProt E2RTS6).
Assay [3] concerns the target GL50803_17327 Xaa-Pro dipeptidase (Giardia lamblia WBA C6 (ATCC 50803)) (UniProt A8BK79).

For “GL50803_11118 Enolase (from UniProt E2RTS6) (enzyme)”, the binding result in assay [1] was “binds”.
As for “GL50803_17153 alpha 11-giardin (from UniProt Q4VPP2)”, the binding result in assay [2] and in assay [3] was “binds” throughout.
Consider “GL50803_17327 Xaa-Pro dipeptidase (from UniProt A8BK79) (enzyme)”, for which, in assay [1], the binding result is given as “binds”.
